# Source: PubChem BioAssay AID1347076 (National Center for Advancing Translational Sciences (NCATS), 2019)
# Values joined by “and” are separate entries in the source; they are usually repeats but may differ in a detail not shown here. Equal entries are not always repeated. The campaign covered roughly 400,000 compounds. About 13,000 (3.2%) were called active. This list was built around the results that the source calls inconclusive (neither active nor inactive); the mix of calls is not that of the screen. The call rests on the fitted dose curve; in most records, active means well fitted cell-killing curve with a large enough effect; inconclusive means small, poorly fitted or top-dose-only effect, or effect the other way; inactive means flat fitted curve, though single readings scatter. Potencies of inconclusive entries are doubtful fits and often do not repeat.
# Assay: qHTS assay for MDR1-selective chemotherapeutics: Primary screen using the drug-selected MDR subline cells KB-V1; further: nearly all actives have a fitted effect of over 60% in size
# Conditions: KB-V1 MDR cells viability, CellTiter-Glo, 72 h; activity change, negative = cytotoxicity: at 46.1 µM (top of the series)
# Summary of the method: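 Luminescent ATP read-out (CellTiter-Glo, 10 min) measures survival of drug-selected KB-V1 MDR cells after 72 h, 37 degrees C compound exposure. Medium: phenol-red-free DMEM, 10% FBS. Values from fitted concentration-response curves.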
# On the % scale 0 is the no-effect control and ±100 the full control effect; potency means the concentration at half of the fitted maximal effect.
Structure (SMILES),"activity change, negative = cytotoxicity",Potency
COc1cc(C(=O)NCC(c2cccnc2)N2CCN(C)CC2)cc(OC)c1OC (stereo not drawn),inactive: 9.34%,
CCCc1cc(=O)[nH]c(SCc2ccc(Cl)cc2)n1,,"inconclusive: 29.1 µM [rising, single point]"
COc1cc(C)cc(CN2CCC(Cc3ccccc3)CC2)c1O,inactive: -10.3%,
CC(=O)c1nnn(-c2nc(N3CCCC3)nc(N(c3ccccc3)c3ccccc3)n2)c1C,,"inconclusive: 3.66 µM [cytotoxic, full curve]"
CCOC(=O)c1ccc(Nc2c(-c3ccc(O)cc3)nc3nc[nH]n23)cc1,inactive: 17.9%,
COC(=O)c1ccc(N2NC(=O)/C(=C/c3cc(OC)c(O)c(OC)c3)C2=O)cc1,inactive: -2.55%,
Cc1ccccc1CS(=O)(=O)Cc1ccc(C(=O)NCCc2ccccc2)o1,,"inconclusive: 29.1 µM [cytotoxic, single point]"
Nc1ccc(/C=C2\C=Cc3ccccc32)cc1,,"inconclusive: 25.9 µM [rising, single point]"
COc1cccc2cc(-c3nc(-c4ccccc4)c(C)s3)c(=O)oc12,,"inconclusive: 29.1 µM [rising, single point]"
C/C(=N\NC(=S)Nc1c(C)cccc1C)c1ccc(OC(F)F)cc1,,"inconclusive: 16.4 µM [cytotoxic, single point]"
S=C(NCCCc1ccccc1)NCc1ccccc1,inactive: 16.9%,
Cc1ccc(C(=O)CSc2ccccc2C(=O)O)cc1,,"inconclusive: 29.1 µM [rising, single point]"
Cc1ccc(NC(=O)Nc2ccccc2)cc1[N+](=O)[O-],,"inconclusive: 20.6 µM [cytotoxic, single point]"
COc1ccc(-c2oc3c(c2C#CC2(O)CCCCC2)C(OC(C)=O)CCC3)cc1 (stereo not drawn),,"inconclusive: 9.2 µM [cytotoxic, partial curve]"
O=C(CSc1nnnn1-c1ccc(C(=O)O)cc1)NC1CC1,inactive: 23.6%,
CCN(CC)CCn1c(SCC(=O)NCc2ccco2)nc2c(sc3ccccc32)c1=O,inactive: -8.19%,
COc1ccc(NCC(O)Cn2c(C)c(C)c3ccccc32)cc1 (stereo not drawn),,"inconclusive: 20.6 µM [cytotoxic, single point]"
Nc1ccc(NC(=O)c2cc(Cl)ccc2O)c(Cl)c1,inactive: -1.99%,
CC(NC(=O)c1ccco1)C(=O)Nc1nc(-c2ccccn2)cs1 (stereo not drawn),,"inconclusive: 5.8 µM [cytotoxic, full curve, poor fit]"
C/C=C/c1ccc(OCCN2CCc3ccccc3C2)c(OC)c1,,"inconclusive: 6.51 µM [cytotoxic, partial curve, poor fit]"
COc1ccc(NC(=O)c2ccc(C)cc2)c(OC)c1,,"inconclusive: 29.1 µM [cytotoxic, single point]"
CN(C(=O)CCNC(=O)Cn1cnc2ccccc2c1=O)c1ccccc1F,,"inconclusive: 3.26 µM [rising, partial curve, poor fit]"
CCOc1ccc(CCN2C(=O)C(=O)N([C@@H](CC(C)C)CN3CCC[C@H]3CN3C(=O)C(=O)NC[C@@H]3Cc3ccccc3)C[C@@H]2Cc2ccccc2)cc1,,"inconclusive: 23.1 µM [cytotoxic, partial curve]"

Structure (SMILES),"activity change, negative = cytotoxicity",Potency
O=C(CSc1nc2ccccc2c(=O)[nH]1)N1CCN(c2ccccc2F)CC1,,"inconclusive: 13 µM [cytotoxic, partial curve]"
COC(=O)c1ccccc1-c1ccc(/C=N/NC(=O)c2cc3ccccc3o2)o1,,active: 13 µM
COc1cc2c(cc1OC)CN(CC(=O)NC(=O)NC(C)(C)C)CC2,,"inconclusive: 29.1 µM [cytotoxic, single point]"
Cc1cccnc1NC(=O)CCNS(=O)(=O)c1ccc2c(c1)c(=O)n(C)c(=O)n2C,,"inconclusive: 16.4 µM [rising, partial curve]"
Cc1ccc(NC(=O)CCCCCN2C(=O)[C@@H]3Cc4ccccc4CN3C2=O)cc1,,"inconclusive: 0.0058 µM [rising, full curve, poor fit]"
c1cc2c(cc1-n1cnnn1)OCO2,,"inconclusive: 20.6 µM [rising, single point]"
O=C(Nc1cccc(Br)c1)Oc1cccc2cccnc12,,"inconclusive: 29.1 µM [cytotoxic, single point]"
CC(=O)Nc1cccc(OCCCOc2cccc([N+](=O)[O-])c2)c1,,active: 9.2 µM
CCC(=O)Nc1c2c(nn1-c1ccc(C)cc1)CS(=O)(=O)C2,inactive: -3.49%,
O=C(Nc1nnc(-c2ccccc2F)s1)Nc1ccccc1F,inactive: -2.41%,
CSCCC(NC(=O)c1ccco1)C(=O)OCC(=O)N1c2ccccc2NC(=O)C1(C)C (stereo not drawn),,"inconclusive: 18.4 µM [rising, partial curve, poor fit]"
CCCOc1ccccc1C(=O)N1CCC(c2nc3ccccc3s2)CC1,,"inconclusive: 9.2 µM [cytotoxic, partial curve]"
COc1ccc(C(=O)COC(=O)CCCN=C2NS(=O)(=O)c3ccccc32)c(OC)c1,inconclusive: 30.7%,
COC(=O)C1CCN(C(=O)C2CCN(C(=O)[C@@H](NS(=O)(=O)c3ccc(C)cc3)C(C)C)CC2)CC1,inactive: -12.9%,
CC(=O)c1c(C)[nH]c(C(=O)Nc2nc(-c3ccc(Cl)cc3)cs2)c1C,,"inconclusive: 23.1 µM [cytotoxic, single point]"
CCOc1ccc(C(=O)Nc2ccc3c(c2)OCCO3)cc1[N+](=O)[O-],,"inconclusive: 29.1 µM [cytotoxic, single point]"
COc1ccc(/C=C/C(=O)C2C(=O)C=C(C)OC2=O)cc1O (stereo not drawn),,"inconclusive: 20.6 µM [cytotoxic, single point]"
O=C(c1ccc(NC(=S)Nc2ccc(Cl)c(Cl)c2)cc1)N1CCCC1,inactive: 9.55%,
Cc1ccc2ccc(C(Nc3ccccn3)c3ccccc3)c(O)c2n1 (stereo not drawn),,"inconclusive: 20.6 µM [cytotoxic, single point] and inconclusive: 29.1 µM [cytotoxic, single point]"
COCCn1c(C)cc(C(=O)COC(=O)C23CC4CC(CC(O)(C4)C2)C3)c1C,,"inconclusive: 13 µM [cytotoxic, partial curve]"
N#C/C(=C\c1ccc(N2CCOCC2)o1)c1ccccc1,,"inconclusive: 18.4 µM [cytotoxic, single point]"
CC(C)CCNC(=O)C(C)N(C(=O)Cn1nnc(-c2ccc(F)cc2)n1)C1CCCC1 (stereo not drawn),inactive: 0.71%,
CCOc1ccc(N(CC(=O)NC2CCCCC2)C(=O)CSc2nnc(COc3ccccc3)o2)cc1,inactive: 0%,

Structure (SMILES),"activity change, negative = cytotoxicity",Potency
CCOC(=O)CN1C(=O)C(Sc2n[nH]c(-c3ccc(C)cc3)n2)CCc2ccccc21 (stereo not drawn),inactive: -29.2%,
c1cc(-c2cc3cc(N4CCOCC4)ccc3o2)cs1,inactive: -8.59%,
COc1cc(CNC2CCCC2)c(Br)cc1OC1CCCC1,,"inconclusive: 8.2 µM [cytotoxic, partial curve, poor fit]"
CNC(=S)N(C1=NCC(c2ccc([N+](=O)[O-])cc2)S1)c1ccccc1 (stereo not drawn),,"inconclusive: 5.17 µM [cytotoxic, full curve]"
CCOC(=O)N1CCN(c2ncnc3scc(-c4ccc(Cl)cc4)c23)CC1,,"inconclusive: 29.1 µM [cytotoxic, single point]"
O=c1cc(-c2ccccc2)oc2cc(O)cc(O)c12,,"inconclusive: 14.6 µM [cytotoxic, single point]"
CCc1nc2ccccc2c(C(=O)OC2CCCCC2=O)c1C (stereo not drawn),,"inconclusive: 8.2 µM [cytotoxic, partial curve]"
COc1ccccc1NC(=O)c1cc(N2C(=O)C3C4CCC(C4)C3C2=O)ccc1Cl (stereo not drawn),inconclusive: -17.8%,
COc1cccc(N2CCN(C(=O)C3CCC(CNS(=O)(=O)c4ccc(Br)s4)CC3)CC2)c1 (stereo not drawn),,"inconclusive: 5.17 µM [cytotoxic, full curve, poor fit]"
Cc1ccc(NC(=O)CN2CCCN(Cc3cc(C)ccc3C)S2(=O)=O)c(Cl)c1,inactive: 5.84%,
CN(C)/C=C(\C=O)c1onc(-c2ccccc2Cl)c1C#N,,"inconclusive: 29.1 µM [rising, single point]"
CCOc1ccc(-n2c(C)cc(C(=O)CCl)c2C)cc1,,"inconclusive: 10.3 µM [cytotoxic, partial curve]"
CCCc1nc2ccccc2c(C(=O)OCC(=O)N2CCc3ccccc32)c1CC,,active: 6.51 µM
Cc1nnc(N/N=C/c2cccc(OCc3ccc(Cl)c(Cl)c3)c2)n1N,,"inconclusive: 18.4 µM [cytotoxic, single point]"
Cc1ccc(-c2nc3ccccc3o2)cc1NC(=O)COc1ccccc1C,,"inconclusive: 9.2 µM [cytotoxic, partial curve, poor fit]"
Cc1cc(C(=O)N/N=C/c2cc(Br)ccc2OC(=O)c2ccccc2)n[nH]1,inactive: -4.17%,
O=Cc1cnc(N2CCN(Cc3ccccc3)CC2)s1,,"inconclusive: 2.59 µM [rising, partial curve, poor fit]"
N#Cc1cc(Oc2cccc3cccnc23)c(-n2nnc3ccccc32)cc1C#N,,"inconclusive: 11.2 µM [cytotoxic, partial curve]"
O=C(O)CCC(=O)N1CCc2cc(S(=O)(=O)N3CCCCC3)ccc21,,"inconclusive: 31.6 µM [cytotoxic, single point]"
CCn1c2ccccc2c2cc(C3C(C#N)=C(N)Oc4n[nH]c(COC)c43)ccc21 (stereo not drawn),inactive: 15.2%,
C#CCNC(=O)C[C@@H]1C[C@@]2(C(=O)OCC)CCCC=C2N(Cc2ccccc2)C1=O,,"inconclusive: 5.8 µM [cytotoxic, partial curve]"
CCCC[C@H]1COCCS(=O)(=O)N1Cc1cccc([N+](=O)[O-])c1,,"inconclusive: 18.4 µM [cytotoxic, single point]"

# In a second layout: results already given.
Structure (SMILES)	activity change, negative = cytotoxicity	Potency
CSCCC(NC(=O)c1ccco1)C(=O)OCC(=O)N1c2ccccc2NC(=O)C1(C)C (stereo not drawn)		inconclusive: 18.4 µM [rising, partial curve, poor fit]
CCCOc1ccccc1C(=O)N1CCC(c2nc3ccccc3s2)CC1		inconclusive: 9.2 µM [cytotoxic, partial curve]
COc1ccc(C(=O)COC(=O)CCCN=C2NS(=O)(=O)c3ccccc32)c(OC)c1	inconclusive: 30.7%	
COC(=O)C1CCN(C(=O)C2CCN(C(=O)[C@@H](NS(=O)(=O)c3ccc(C)cc3)C(C)C)CC2)CC1	inactive: -12.9%	
CC(=O)c1c(C)[nH]c(C(=O)Nc2nc(-c3ccc(Cl)cc3)cs2)c1C		inconclusive: 23.1 µM [cytotoxic, single point]
